From US9301917B2, “Sustained-release pharmaceutical composition” (Kyoto University, priority 2010, dated 2016)

B1: phosphorylase b: protein, MW 97 kDa, used as drug in sucrose/atelocollagen formulation (protein, UniProt P00489 2-843, looked up)
Glycogen phosphorylase, …: SRPLSDQEKRKQISVRGLAGVENVTELKKNFNRHLHFTLVKDRNVATPRDYYFALAHTVRDHLVGRWIRTQQHYYEKDPKRIYYLSLEFYMGRTLQNTMVNLALENACDEATYQLGLDMEELEEIEEDAGLGNGGLGRLAACFLDSMATLGLAAYGYGIRYEFGIFNQKICGGWQMEEADDWLRYGNPWEKARPEFTLPVHFYGRVEHTSQGAKWVDTQVVLAMPYDTPVPGYRNNVVNTMRLWSAKAPNDFNLKDFNVGGYIQAVLDRNLAENISRVLYPNDNFFEGKELRLKQEYFVVAATLQDIIRRFKSSKFGCRDPVRTNFDAFPDKVAIQLNDTHPSLAIPELMRVLVDLERLDWDKAWEVTVKTCAYTNHTVLPEALERWPVHLLETLLPRHLQIIYEINQRFLNRVAAAFPGDVDRLRRMSLVEEGAVKRINMAHLCIAGSHAVNGVARIHSEILKKTIFKDFYELEPHKFQNKTNGITPRRWLVLCNPGLAEIIAERIGEEYISDLDQLRKLLSYVDDEAFIRDVAKVKQENKLKFAAYLEREYKVHINPNSLFDVQVKRIHEYKRQLLNCLHVITLYNRIKKEPNKFVVPRTVMIGGKAAPGYHMAKMIIKLITAIGDVVNHDPVVGDRLRVIFLENYRVSLAEKVIPAADLSEQISTAGTEASGTGNMKFMLNGALTIGTMDGANVEMAEEAGEENFFIFGMRVEDVDRLDQRGYNAQEYYDRIPELRQIIEQLSSGFFSPKQPDLFKDIVNMLMHHDRFKVFADYEEYVKCQERVSALYKNPREWTRMVIRNIATSGKFSSDRTIAQYAREIWGVEPSRQRLPAPDEKIP

Experiment: Influence of molecular weight of drug on in vivo gelation of collagen (Example 4)
Details: formulation of protein 10 mg/mL, sucrose 0.25 M, atelocollagen 3% [w/v]; 100 μL dorsal subcutis of mice, 24 hours

Row | Molecule | in vivo gelation of the collagen
1 | transferrin: protein, MW 76 kDa, used as drug in sucrose/atelocollagen formulation | formed a gel
2 | thyrogloblin: high molecular weight protein (669 kDa) used as drug in sucrose/atelocollagen formulation | formed a gel
3 | B1 | formed a gel
